These are yes or no findings as the source states them, for the method shown. In cells and extracts the contact can be indirect. Some binding calls cover weakened binding; strength is not graded here.
Target: MLL4 (histone H3 lysine 4 methyltransferase) (human (endogenous in HepG2)) (UniProt O14686)
Test: co-IP; HepG2 cells transfected with Flag-p65, with or without LPS (100 ng/ml, 2 h); lysis buffer with 150 mM NaCl, 0.5% NP-40; IP with home-made anti-MLL4 antibody and protein A-agarose; blot with anti-p65

By UniProt entry, the sequences of proteins in these tests, tags left out.
UniProt O14686: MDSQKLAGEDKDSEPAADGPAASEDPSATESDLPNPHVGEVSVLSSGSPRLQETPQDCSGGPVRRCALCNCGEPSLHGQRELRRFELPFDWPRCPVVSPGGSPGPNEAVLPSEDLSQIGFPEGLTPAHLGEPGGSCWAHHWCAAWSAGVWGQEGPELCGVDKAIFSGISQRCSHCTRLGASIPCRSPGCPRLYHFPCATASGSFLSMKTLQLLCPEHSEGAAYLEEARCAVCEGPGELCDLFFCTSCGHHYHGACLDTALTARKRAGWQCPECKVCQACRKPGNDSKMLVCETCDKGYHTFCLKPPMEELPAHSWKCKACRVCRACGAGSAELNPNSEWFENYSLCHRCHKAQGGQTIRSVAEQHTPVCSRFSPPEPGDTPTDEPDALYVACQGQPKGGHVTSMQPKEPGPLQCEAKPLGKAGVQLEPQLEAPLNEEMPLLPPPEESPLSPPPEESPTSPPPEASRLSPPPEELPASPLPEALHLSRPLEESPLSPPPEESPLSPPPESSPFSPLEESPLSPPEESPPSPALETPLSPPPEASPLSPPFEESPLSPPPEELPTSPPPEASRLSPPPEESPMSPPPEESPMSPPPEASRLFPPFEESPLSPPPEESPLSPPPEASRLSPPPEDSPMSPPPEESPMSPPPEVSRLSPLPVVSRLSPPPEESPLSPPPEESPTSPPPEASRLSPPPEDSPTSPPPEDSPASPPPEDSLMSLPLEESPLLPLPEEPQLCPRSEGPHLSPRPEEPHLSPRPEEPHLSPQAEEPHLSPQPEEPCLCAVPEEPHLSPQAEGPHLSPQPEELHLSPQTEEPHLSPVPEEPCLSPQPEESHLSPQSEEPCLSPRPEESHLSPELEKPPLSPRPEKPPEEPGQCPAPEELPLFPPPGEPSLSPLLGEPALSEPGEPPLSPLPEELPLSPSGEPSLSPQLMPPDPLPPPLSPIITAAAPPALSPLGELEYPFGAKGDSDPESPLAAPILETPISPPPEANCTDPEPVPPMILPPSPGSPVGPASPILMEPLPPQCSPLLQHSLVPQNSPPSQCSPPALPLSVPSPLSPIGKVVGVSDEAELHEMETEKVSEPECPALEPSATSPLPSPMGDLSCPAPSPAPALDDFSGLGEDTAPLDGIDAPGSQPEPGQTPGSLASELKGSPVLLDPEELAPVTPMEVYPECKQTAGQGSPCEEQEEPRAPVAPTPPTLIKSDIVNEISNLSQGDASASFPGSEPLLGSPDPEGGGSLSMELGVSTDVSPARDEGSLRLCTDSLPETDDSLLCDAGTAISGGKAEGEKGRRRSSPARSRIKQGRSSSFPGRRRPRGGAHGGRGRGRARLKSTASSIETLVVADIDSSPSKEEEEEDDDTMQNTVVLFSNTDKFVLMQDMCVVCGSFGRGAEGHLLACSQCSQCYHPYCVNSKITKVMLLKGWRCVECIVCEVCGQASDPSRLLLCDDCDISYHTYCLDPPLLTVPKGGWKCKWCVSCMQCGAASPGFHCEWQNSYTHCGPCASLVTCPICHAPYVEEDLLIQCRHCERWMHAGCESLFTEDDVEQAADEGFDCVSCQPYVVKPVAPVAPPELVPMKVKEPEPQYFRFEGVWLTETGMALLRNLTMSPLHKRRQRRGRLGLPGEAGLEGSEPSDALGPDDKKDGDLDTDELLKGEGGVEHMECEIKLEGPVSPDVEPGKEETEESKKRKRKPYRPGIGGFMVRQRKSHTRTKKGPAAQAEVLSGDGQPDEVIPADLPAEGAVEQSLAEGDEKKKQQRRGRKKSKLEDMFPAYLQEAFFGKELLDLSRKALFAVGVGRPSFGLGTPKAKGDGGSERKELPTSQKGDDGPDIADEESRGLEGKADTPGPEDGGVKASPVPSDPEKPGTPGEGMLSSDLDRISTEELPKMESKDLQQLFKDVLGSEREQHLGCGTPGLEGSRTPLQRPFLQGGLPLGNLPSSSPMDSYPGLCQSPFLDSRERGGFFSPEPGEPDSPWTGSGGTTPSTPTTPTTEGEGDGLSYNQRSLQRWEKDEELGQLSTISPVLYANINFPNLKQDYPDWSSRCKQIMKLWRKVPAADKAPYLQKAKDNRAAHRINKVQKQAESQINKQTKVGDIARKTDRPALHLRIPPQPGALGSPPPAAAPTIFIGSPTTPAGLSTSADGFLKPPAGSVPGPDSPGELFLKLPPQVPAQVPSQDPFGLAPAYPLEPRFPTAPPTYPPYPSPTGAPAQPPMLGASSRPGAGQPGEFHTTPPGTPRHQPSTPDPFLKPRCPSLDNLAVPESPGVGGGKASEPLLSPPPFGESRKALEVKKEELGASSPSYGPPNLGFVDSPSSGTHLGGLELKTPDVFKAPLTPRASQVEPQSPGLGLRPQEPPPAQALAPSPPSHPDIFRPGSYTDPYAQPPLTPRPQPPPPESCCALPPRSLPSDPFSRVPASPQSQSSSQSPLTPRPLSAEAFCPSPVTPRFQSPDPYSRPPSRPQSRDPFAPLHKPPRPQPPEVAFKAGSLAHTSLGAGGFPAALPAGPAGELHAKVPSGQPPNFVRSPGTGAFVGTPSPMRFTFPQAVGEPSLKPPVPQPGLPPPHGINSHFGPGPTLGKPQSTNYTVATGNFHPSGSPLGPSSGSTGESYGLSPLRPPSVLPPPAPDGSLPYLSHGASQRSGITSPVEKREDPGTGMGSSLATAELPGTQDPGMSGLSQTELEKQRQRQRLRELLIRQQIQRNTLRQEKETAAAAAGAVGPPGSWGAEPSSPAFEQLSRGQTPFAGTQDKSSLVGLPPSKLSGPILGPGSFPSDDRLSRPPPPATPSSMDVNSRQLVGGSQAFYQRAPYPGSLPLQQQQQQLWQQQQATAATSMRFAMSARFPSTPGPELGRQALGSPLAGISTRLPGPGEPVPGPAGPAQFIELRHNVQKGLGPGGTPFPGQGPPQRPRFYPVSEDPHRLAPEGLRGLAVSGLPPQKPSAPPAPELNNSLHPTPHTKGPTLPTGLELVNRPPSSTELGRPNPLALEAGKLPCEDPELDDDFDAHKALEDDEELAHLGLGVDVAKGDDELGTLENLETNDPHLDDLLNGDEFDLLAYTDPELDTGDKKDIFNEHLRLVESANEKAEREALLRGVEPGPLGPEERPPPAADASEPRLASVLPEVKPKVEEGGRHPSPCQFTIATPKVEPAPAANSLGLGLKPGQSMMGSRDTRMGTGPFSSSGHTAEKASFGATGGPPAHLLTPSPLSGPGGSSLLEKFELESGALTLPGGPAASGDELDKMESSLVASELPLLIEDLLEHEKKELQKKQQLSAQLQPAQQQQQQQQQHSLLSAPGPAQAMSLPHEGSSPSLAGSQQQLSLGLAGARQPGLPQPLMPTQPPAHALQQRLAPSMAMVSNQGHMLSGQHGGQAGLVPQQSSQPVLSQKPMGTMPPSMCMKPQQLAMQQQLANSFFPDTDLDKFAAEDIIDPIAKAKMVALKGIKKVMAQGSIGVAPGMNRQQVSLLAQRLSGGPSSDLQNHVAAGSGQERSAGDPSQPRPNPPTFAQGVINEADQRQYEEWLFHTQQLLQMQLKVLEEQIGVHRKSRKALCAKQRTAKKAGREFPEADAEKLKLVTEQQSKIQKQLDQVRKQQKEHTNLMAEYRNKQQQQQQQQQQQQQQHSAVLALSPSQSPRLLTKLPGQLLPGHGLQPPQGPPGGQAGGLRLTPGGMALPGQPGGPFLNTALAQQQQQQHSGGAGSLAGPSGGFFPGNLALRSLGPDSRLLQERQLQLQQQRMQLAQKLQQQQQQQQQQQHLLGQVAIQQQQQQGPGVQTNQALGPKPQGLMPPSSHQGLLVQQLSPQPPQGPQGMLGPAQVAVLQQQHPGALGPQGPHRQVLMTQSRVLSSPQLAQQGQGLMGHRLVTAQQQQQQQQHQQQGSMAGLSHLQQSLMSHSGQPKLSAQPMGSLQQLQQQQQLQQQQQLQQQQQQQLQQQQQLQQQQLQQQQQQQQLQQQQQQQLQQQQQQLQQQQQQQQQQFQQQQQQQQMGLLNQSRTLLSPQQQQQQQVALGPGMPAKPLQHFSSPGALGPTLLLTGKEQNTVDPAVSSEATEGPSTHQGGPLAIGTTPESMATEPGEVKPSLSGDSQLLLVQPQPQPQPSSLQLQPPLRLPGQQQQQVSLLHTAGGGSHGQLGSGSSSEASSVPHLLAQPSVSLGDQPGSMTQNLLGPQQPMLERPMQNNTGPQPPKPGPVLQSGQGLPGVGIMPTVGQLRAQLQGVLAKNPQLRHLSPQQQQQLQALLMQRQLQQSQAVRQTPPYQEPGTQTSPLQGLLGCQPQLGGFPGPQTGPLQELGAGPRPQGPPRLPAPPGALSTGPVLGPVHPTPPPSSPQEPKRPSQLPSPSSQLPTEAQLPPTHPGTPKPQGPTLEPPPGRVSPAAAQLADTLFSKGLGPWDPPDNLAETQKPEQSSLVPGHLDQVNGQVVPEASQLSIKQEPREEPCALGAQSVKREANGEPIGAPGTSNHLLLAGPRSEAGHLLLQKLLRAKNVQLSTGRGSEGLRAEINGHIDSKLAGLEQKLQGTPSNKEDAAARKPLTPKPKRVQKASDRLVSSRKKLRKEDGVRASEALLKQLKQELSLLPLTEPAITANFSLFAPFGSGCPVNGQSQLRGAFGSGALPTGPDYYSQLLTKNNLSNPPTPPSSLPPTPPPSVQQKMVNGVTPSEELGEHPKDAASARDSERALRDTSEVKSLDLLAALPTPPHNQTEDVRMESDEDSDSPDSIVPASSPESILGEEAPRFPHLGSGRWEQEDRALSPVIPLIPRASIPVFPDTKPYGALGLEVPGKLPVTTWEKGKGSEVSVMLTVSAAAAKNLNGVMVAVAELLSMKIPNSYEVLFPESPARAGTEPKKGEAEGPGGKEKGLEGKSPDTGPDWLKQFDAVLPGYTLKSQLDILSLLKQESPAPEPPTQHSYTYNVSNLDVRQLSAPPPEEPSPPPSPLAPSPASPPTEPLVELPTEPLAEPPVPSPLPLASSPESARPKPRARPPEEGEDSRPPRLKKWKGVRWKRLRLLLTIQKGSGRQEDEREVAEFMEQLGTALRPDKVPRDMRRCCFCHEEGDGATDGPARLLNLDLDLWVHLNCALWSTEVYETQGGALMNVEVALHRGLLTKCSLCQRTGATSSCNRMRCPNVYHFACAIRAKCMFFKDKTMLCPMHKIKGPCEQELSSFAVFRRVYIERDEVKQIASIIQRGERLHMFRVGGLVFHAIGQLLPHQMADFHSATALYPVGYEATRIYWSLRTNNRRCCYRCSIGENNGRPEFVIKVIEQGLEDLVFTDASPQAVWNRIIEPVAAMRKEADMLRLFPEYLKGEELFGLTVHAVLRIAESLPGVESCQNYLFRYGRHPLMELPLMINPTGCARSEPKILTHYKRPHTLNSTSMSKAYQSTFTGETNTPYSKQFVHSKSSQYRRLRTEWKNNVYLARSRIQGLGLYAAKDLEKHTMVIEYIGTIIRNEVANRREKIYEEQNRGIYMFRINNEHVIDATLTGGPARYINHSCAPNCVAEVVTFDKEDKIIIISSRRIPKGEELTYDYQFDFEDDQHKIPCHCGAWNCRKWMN
UniProt Q04207: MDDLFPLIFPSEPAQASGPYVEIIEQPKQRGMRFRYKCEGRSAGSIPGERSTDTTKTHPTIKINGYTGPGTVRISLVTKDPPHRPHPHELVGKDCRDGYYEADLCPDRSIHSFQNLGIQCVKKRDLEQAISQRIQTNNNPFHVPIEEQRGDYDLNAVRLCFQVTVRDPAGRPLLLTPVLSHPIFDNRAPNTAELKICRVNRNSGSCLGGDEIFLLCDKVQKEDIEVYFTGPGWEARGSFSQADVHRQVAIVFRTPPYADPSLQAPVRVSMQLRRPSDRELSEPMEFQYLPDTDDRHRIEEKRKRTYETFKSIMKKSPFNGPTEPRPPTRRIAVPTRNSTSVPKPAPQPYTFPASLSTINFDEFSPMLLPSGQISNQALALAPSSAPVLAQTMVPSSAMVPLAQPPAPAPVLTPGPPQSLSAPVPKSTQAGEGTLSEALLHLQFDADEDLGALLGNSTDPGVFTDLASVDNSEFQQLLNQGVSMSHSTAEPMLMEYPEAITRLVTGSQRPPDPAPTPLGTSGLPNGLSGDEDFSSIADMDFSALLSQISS

binding: binds
Substance: Flag-tagged mouse p65 (from UniProt Q04207 1-549)
